These results are taken from article PMC7368280.

Amino acid sequences for entries named in this document (tags omitted).
UniProt O22467: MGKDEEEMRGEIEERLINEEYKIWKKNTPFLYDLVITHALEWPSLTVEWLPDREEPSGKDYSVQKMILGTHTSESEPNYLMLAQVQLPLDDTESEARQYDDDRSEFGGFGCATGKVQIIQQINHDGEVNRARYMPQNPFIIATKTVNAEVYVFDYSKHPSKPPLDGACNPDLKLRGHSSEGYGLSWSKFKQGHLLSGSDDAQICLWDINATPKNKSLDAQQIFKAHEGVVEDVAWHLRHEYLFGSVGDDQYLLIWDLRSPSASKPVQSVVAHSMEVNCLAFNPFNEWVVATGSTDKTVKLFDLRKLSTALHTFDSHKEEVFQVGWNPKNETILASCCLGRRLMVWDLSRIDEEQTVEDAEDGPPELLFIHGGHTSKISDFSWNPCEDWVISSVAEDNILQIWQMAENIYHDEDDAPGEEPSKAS

Results are given in words; binding and its absence hold for the method and conditions named. In cells and extracts the contact can be indirect. These calls come from enrichment with a bait or labelling near it, and not all partners need be listed. For some of these results: A no says only that the protein was not detected with the bait. Sequences can lack the tags named with a protein.

Assay [1] addresses T1, ICU11-3xHA (gICU11-HA in icu11-3) (Arabidopsis) (UniProt Q3ED68).
T1 sequence: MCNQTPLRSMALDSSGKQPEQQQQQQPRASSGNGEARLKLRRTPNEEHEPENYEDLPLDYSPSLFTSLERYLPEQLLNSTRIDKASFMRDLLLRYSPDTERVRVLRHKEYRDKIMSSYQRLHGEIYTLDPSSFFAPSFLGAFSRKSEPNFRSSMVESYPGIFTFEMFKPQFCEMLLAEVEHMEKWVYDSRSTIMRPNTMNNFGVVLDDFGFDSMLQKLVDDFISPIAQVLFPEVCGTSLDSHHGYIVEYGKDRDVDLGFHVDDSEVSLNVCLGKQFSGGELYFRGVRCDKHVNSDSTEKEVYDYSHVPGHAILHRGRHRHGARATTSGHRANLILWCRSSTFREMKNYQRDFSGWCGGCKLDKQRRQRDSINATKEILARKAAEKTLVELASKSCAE
Briefly: affinity purification with mass spectrometry; coIP-MS with 3xHA-tagged ICU11 as bait from Arabidopsis plants (gICU11-HA icu11-3), control icu11-3; two independent experiments; procedure in SI Appendix.

Assay [2] concerns the target T2, SWN-GFP (gSWN-GFP) (Arabidopsis) (UniProt Q9ZSM8).
T2 sequence: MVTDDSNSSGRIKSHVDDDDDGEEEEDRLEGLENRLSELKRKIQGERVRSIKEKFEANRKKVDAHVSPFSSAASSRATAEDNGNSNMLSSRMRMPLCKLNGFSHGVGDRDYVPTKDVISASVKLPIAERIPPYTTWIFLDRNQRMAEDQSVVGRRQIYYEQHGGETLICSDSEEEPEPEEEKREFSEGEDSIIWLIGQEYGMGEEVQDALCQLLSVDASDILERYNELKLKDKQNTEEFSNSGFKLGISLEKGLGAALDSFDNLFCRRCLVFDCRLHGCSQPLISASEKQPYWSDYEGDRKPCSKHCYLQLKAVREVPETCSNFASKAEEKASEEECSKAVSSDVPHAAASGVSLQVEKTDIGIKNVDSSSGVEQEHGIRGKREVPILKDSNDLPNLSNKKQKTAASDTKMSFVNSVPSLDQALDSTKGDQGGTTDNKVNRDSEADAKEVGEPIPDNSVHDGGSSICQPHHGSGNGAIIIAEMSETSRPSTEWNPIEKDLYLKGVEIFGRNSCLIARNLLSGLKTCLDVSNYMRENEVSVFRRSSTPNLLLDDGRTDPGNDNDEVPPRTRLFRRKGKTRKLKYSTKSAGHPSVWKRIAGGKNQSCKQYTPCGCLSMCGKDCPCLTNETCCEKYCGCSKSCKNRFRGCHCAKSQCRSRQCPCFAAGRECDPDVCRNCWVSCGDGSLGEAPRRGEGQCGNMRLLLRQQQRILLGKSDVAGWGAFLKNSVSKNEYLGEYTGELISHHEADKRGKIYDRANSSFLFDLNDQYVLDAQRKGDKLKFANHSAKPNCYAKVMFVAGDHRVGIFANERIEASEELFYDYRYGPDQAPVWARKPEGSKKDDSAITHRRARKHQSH
Briefly: affinity purification with mass spectrometry; coIP-MS with GFP-tagged baits from Arabidopsis plants (gICU11-GFP icu11-3; 35S:GFP-CLF clf-50; gSWN-GFP), control 35S::GFP; two independent experiments; procedure in SI Appendix.

The target of assay [3] is T3, ICU11-eGFP (gICU11-GFP in icu11-3) (Arabidopsis) (UniProt Q3ED68).
T3 sequence: T1 sequence
Described as above.

For assay [4], the target named is T4, GFP-CLF (35S:GFP-CLF in clf-50) (Arabidopsis) (UniProt P93831).
T4 sequence: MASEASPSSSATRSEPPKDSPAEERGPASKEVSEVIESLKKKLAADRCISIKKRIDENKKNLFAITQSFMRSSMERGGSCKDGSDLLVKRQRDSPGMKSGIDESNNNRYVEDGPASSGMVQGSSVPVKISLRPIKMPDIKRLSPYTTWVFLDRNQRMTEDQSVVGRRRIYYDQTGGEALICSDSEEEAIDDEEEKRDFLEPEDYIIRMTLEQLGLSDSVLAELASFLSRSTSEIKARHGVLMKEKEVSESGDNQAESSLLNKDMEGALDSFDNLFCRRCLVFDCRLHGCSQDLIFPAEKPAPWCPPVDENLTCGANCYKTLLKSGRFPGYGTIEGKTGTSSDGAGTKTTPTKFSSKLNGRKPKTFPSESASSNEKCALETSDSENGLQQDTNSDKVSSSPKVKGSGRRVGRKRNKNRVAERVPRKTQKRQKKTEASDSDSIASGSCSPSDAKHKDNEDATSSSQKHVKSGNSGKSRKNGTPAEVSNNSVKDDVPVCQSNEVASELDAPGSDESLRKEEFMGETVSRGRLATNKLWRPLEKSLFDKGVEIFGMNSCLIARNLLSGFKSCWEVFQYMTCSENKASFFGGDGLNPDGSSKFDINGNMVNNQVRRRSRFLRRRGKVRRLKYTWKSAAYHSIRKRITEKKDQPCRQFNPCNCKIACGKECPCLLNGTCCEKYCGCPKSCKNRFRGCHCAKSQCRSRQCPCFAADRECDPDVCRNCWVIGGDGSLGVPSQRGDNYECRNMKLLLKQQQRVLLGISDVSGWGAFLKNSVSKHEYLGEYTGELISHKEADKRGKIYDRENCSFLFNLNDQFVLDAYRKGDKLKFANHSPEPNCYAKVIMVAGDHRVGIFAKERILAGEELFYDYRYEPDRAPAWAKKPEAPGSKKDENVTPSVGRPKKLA
The assay is described as above.

Assay [5] has as its target T5, EMF1-3XFLAG (in emf1) (Arabidopsis) (UniProt Q9LYD9).
T5 sequence: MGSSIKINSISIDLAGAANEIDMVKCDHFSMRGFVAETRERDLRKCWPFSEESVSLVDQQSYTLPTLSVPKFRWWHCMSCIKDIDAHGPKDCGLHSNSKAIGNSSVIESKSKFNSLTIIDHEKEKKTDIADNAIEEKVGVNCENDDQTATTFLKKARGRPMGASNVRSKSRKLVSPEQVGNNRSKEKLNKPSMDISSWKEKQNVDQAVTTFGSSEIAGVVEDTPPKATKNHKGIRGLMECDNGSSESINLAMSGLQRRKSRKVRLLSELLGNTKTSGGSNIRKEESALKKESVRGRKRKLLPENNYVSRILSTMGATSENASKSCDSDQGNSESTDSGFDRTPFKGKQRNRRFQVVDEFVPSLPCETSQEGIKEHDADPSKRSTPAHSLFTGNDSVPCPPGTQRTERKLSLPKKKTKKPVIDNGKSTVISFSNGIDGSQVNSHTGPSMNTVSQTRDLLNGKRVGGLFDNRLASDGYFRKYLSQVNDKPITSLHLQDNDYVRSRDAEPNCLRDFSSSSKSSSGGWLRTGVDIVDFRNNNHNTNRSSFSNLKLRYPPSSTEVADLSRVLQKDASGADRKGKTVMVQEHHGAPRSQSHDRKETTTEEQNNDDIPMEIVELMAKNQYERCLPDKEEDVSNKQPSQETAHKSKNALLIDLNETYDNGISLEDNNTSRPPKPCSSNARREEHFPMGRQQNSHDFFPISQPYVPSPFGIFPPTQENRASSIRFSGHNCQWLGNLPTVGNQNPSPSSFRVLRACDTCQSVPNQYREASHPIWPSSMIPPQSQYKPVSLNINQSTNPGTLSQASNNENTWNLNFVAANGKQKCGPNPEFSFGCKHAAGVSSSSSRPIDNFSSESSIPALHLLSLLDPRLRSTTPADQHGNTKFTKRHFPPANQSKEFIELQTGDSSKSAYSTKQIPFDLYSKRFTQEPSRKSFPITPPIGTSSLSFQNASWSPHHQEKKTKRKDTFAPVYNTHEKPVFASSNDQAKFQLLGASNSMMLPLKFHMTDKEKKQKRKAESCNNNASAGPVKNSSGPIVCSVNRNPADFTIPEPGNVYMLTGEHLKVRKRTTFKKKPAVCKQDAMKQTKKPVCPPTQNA
Briefly: affinity purification with mass spectrometry; coIP-MS with EMF1-3XFLAG as bait from Arabidopsis plants (EMF1-3XFLAG emf1), control Col-0; two independent experiments; procedure in SI Appendix.

With “MULTICOPY SUPPRESSOR OF IRA1 (from UniProt O22467 1-424)”, the binding entry in assay [1], in assay [2], in assay [3], in assay [4] and in assay [5] was “binds” each time.

In the case of “VERNALIZATION …3 (from UniProt Q9FIE3 1-620)”, the binding entry in assay [1] and in assay [3] was “no binding” each time.
